Where a name gives a salt, the structure may show the parent alone. Some of the results follow. Part of the spread comes from offsets between plates or batches.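 The clonal Drosophila S2 line carries Smoothened with a circularly permuted GFP inserted in its cytoplasmic tail, which fluoresces once Hh-driven phosphorylation opens an inhibitory loop. Per-cell fluorescence was read by flow cytometry, scaled to Hh-stimulated untreated cells. Hits were groups of inhibitors sharing pathway targets that shifted fluorescence consistently, not single compounds.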
System: Drosophila S2 cl14 SmoIP sensor cells
Assay: normalized SmoIP GFP fluorescence (untreated unstimulated = 0%, untreated Hh-stimulated = 100%); higher = more Smo activation sensor fluorescence
Conditions: compound concentration: 15 uM, 24 h
[1] = stimulation: Hh conditioned medium (+Hh)
[2] = stimulation: mock conditioned medium (-Hh)

| Compound | normalized SmoIP GFP fluorescence [1] [%] | normalized SmoIP GFP fluorescence [2] [%] |
| --- | --- | --- |
| CO[C@@H](C(=O)N1Cc2[nH]nc(NC(=O)c3ccc(N4CCN(C)CC4)cc3)c2C1)c1ccccc1 | 265 | 35.2 |
| Cc1c(C(=O)Nc2ccc(N3C[C@@H](C)O[C@@H](C)C3)nc2)cccc1-c1ccc(OC(F)(F)F)cc1 | 97.8 | 42.8 |
| Cc1ccc(Sc2ccccc2N2CCNCC2)c(C)c1 | 182 | -12 |
| COc1ccc(COc2cc3oc(=O)c4cc(C(C)O)ccc4c3cc2OC)cc1 (stereo not given) [Palomid-529-P529] | 140 | -6.97 |
| COc1cc(Nc2nc3ccccc3nc2NS(=O)(=O)c2ccc(NC(=O)c3ccc(C)c(OC)c3)cc2)cc(OC)c1 | 130 | 29.4 |
| CC(C)OC(=O)OCOP(=O)(CO[C@H](C)Cn1cnc2c(N)ncnc21)OCOC(=O)OC(C)C [Tenofovir-Disoproxil-Fumarate] | 140 | 1.89 |
| CCOC(=O)[C@H](CCc1ccccc1)N[C@H]1CCCN2CCC[C@H](C(=O)O)N2C1=O [cilazapril-monohydrate-inhibace] | 121 | -12 |
| Cc1c(Cn2c(C)nc3c(C(=O)O)cc(N4CCOCC4)cc32)cccc1C(F)(F)F | 165 | 9.08 |
| CCCc1cc(C)[nH]c(=O)c1CNC(=O)c1cc(-c2ccc(N3CCN(C(C)C)CC3)nc2)cc2c1cnn2C(C)C | 193 | 74.7 |
| CC(=O)Nc1ccc(C(=O)Nc2ccccc2N)cc1 [ci994-tacedinaline] | 237 | 9.39 |
| CC1=C(C(=O)Nc2cc3cn[nH]c3cc2F)C(c2ccc(C(F)(F)F)cc2)CC(=O)N1 (stereo not given) | 159 | 6.2 |
| O=C1NC(=O)C(c2ccccc2[N+](=O)[O-])=C1Nc1ccc(O)c(Cl)c1 | 160 | 0.605 |
| Cc1cn([C@H]2C=C[C@@H](CO)O2)c(=O)[nH]c1=O [Stavudine] | 144 | 8.46 |
| Cc1ccc(=O)n(-c2ccccc2)c1 [pirfenidone] | 103 | -4.47 |
| C[C@@H](N)[C@H]1CC[C@H](C(=O)Nc2ccncc2)CC1 | 116 | -8.56 |
| Cc1ccc(C(=O)NCCCCCC(=O)Nc2ccccc2N)cc1 [rg2833-rgfp109] | 122 | 6.38 |
| CCc1cc2c(cc1CC)CC(NC[C@H](O)c1ccc(O)c3[nH]c(=O)ccc13)C2 [indacaterol-maleate] | 130 | 15 |
| CN(C)C1CCN(C(=O)c2ccc(NC(=O)Nc3ccc(-c4nc(N5CCOCC5)nc(N5CCOCC5)n4)cc3)cc2)CC1 | 62.6 | -4.35 |

Quoted at random: two records from the list

| Compound | normalized SmoIP GFP fluorescence [1] [%] | normalized SmoIP GFP fluorescence [2] [%] |
| --- | --- | --- |
| O=C1NC(=O)C(c2ccccc2[N+](=O)[O-])=C1Nc1ccc(O)c(Cl)c1 | 160 | 0.605 |
| Cc1cn([C@H]2C=C[C@@H](CO)O2)c(=O)[nH]c1=O [Stavudine] | 144 | 8.46 |

Going on with the list.

| Compound | normalized SmoIP GFP fluorescence [1] [%] | normalized SmoIP GFP fluorescence [2] [%] |
| --- | --- | --- |
| CCOC(=O)c1ncn2c1CN(C)C(=O)c1cc(F)ccc1-2 [Flumazenil] | 133 | -2.64 |
| Cc1c(C(=O)NN2CCCCC2)nn(-c2ccc(Cl)cc2Cl)c1-c1ccc(Cl)cc1 | 129 | 41.7 |
| Cc1cc(C)nc(NS(=O)(=O)c2ccc(NC(=S)NC(=O)COc3ccc(Br)cc3Cl)cc2)n1 | 131 | -0.378 |
| CN1C2CCCC1CC(NC(=O)c1nn(C)c3ccccc13)C2 (stereo not given) [Granisetron-Hydrochloride] | 135 | 2.64 |
| Nc1cccc2c1CN(C1CCC(=O)NC1=O)C2=O (stereo not given) [Lenalidomide] | 147 | 9.86 |
| COc1ccc(-c2nc(N3CCOCC3)c3sc(CN(C)c4ncc(C(=O)NO)cn4)cc3n2)cn1 [cudc-907] | 230 | 52.7 |
| COc1c(C)cnc(Cn2cnc3c(Cl)nc(N)nc32)c1C | 71.5 | 67.1 |
| COc1cc(OC)c2c(=O)[nH]c(-c3cc(C)c(OCCO)c(C)c3)nc2c1 | 134 | 9.79 |
| Cc1ccc2nc(NCCN)c3ncc(C)n3c2c1 | 136 | -10.6 |
| CN1C(C(=O)Nc2ccccn2)=C(O)c2sc(Cl)cc2S1(=O)=O [lornoxicam-xefo] | 155 | -12.9 |
| C[C@]1(c2nc3c(C(N)=O)cccc3[nH]2)CCCN1 | 135 | 9.32 |
| CC(C)c1cc(-c2n[nH]c(=O)n2-c2ccc3c(ccn3C)c2)c(O)cc1O [ganetespib-sta-9090] | 133 | 8.46 |
| CCc1cccc2c3c([nH]c12)C(CC)(CC(=O)O)OCC3 (stereo not given) [Etodolac] | 131 | 0.274 |
| CN(C)CC(c1ccc(O)cc1)C1(O)CCCCC1 (stereo not given) [desvenlafaxine] | 109 | -0.889 |
| C/C(=C\C(=O)Nc1ccccc1C(=O)O)c1ccc2ccccc2c1 | 130 | 5.98 |
| CN(C)CC(=O)Nc1ccc2[nH]c(=O)c3ccccc3c2c1 | 137 | 6.67 |
| O=P(O)(O)C(O)(Cn1ccnc1)P(=O)(O)O [Zoledronic-Acid] | 132 | 4.8 |
